Values of other authors, collected in patent US20080032989A1, “Method of treating inflammatory diseases using tyroskine kinase inhibitors” (priority 2006, published 2008).

Test system: PDGFR
Conditions: Table 7; cited from earlier work

SMILES: CO[C@@H]1[C@H](N(C)C(=O)c2ccccc2)C[C@H]2O[C@]1(C)n1c3ccccc3c3c4c(c5c6ccccc6n2c5c31)C(=O)NC4 [PKC412]
- PDGFR Inhibitory profile (with IC50s when available): potent
